# Values of other authors in patent US20060193824A1, “Methods for the treatment of infectious and inflammatory airway diseases” (priority 2005, published 2006).
# At least one compound was matched to its structure with a doubt left.
# System: retinoid-deficient human bronchial cell cultures
smiles,measurement,value
CC1=C(/C=C/C(C)=C/C=C/C(C)=C/C(=O)O)C(C)(C)CCC1 [retinoic acid],mucus phenotype,effective to restore the mucus phenotype
